Test results taken from PMC6321601 (Molecules, 2018).

These compounds were tested on HepG-2 and L-O2 cell lines (assay: Therapeutic index, ratio of IC50 for L-O2 to IC50 for HepG-2). Details: IC50 (L-O2)/IC50 (HepG-2).
Format: cell-based, human
`COc1cc(/C=C/C(=O)O[C@@H]2C[C@@]3(C)C4CC=C5C(C[C@H](O)C(=O)C5(C)C)[C@]4(C)C(=O)C[C@]3(C)C2[C@@](C)(O)C(=O)/C=C/C(C)(C)OC(C)=O)cc(OC)c1` (stereo partly drawn) [Compound 3q, (2S,9R,13R,14S,16R)-17-((R,E)-6-Acetoxy-2-hydroxy-6-methyl-3-oxohept-4-en-2-yl)-2-hydroxy-4,4,9,13,14-pentamethyl-3,11-dioxo-2,3,4,7,8,9,10,11,12,13,14,15,16,17-tetradecahydro-1H-cyclopenta[a]phenanthren-16-yl (E)-3-(3,5-dimethoxyphenyl)acrylate] was tested, and the “TI (Therapeutic Index)” value was 1.36.
`CC(=O)OC(C)(C)C=CC(=O)C(C)(O)C1C(OC(=O)CCC(=O)NCCOc2no[n+]([O-])c2S(=O)(=O)c2ccccc2)CC2(C)C3CC=C4C(CC(O)C(=O)C4(C)C)C3(C)C(=O)CC12C` [Compound 9a, 3-((l1-oxidanyl)(oxo)(phenyl)-l5-sulfanyl)-4-(2-(4-(((9R,13R,14S,16R)-17-((R,E)-6-acetoxy-2-hydroxy-6-methyl-3-oxohept-4-en-2-yl)-2-Hydroxy-4,4,9,13,14-pentamethyl-3,11-dioxo-2,3,4,7,8,9,10,11,12,13,14,15,16,17-tetradecahydro-1H-cyclopenta[a]phenanthren-16-yl)oxy)-4-oxobutanamido)ethoxy)-1,2,5-oxadiazole 2-oxide] was tested, and the “TI (Therapeutic Index)” value was 1.5.
In the case of `CC(=O)OC(C)(C)/C=C/C(=O)[C@](C)(O)C1[C@H](OC(=O)CCC(=O)NCCCOc2no[n+]([O-])c2S(=O)(=O)c2ccccc2)C[C@@]2(C)C3CC=C4C(CC(O)C(=O)C4(C)C)[C@]3(C)C(=O)C[C@]12C` (stereo partly drawn) [Compound 9b, 4-(3-(4-(((9R,13R,14S,16R)-17-((R,E)-6-Acetoxy-2-hydroxy-6-methyl-3-oxohept-4-en-2-yl)-2-hydroxy-4,4,9,13,14-pentamethyl-3,11-dioxo-2,3,4,7,8,9,10,11,12,13,14,15,16,17-tetradecahydro-1H-cyclopenta[a]phenanthren-16-yl)oxy)-4-oxobutanamido)propoxy)-3-(phenylsulfonyl)-1,2,5-oxadiazole 2-oxide], the “TI (Therapeutic Index)” value is reported as 1.51.
For `CC(=O)OC(C)(C)/C=C/C(=O)[C@](C)(O)C1[C@H](OC(=O)CCC(=O)N2CCN(CCOc3no[n+]([O-])c3S(=O)(=O)c3ccccc3)CC2)C[C@@]2(C)C3CC=C4C(CC(O)C(=O)C4(C)C)[C@]3(C)C(=O)C[C@]12C` (stereo partly drawn) [Compound 9c, 4-(2-(4-(4-(((9R,13R,14S,16R)-17-((R,E)-6-Acetoxy-2-hydroxy-6-methyl-3-oxohept-4-en-2-yl)-2-hydroxy-4,4,9,13,14-pentamethyl-3,11-dioxo-2,3,4,7,8,9,10,11,12,13,14,15,16,17-tetradecahydro-1H-cyclopenta[a]phenanthren-16-yl)oxy)-4-oxobutanoyl)piperazin-1-yl)ethoxy)-3-(phenylsulfonyl)-1,2,5-oxadiazole 2-oxide], the “TI (Therapeutic Index)” value was 2.84.
For `CC(=O)OC(C)(C)/C=C/C(=O)[C@](C)(O)C1[C@H](OC(=O)CCC(=O)OCCOc2no[n+]([O-])c2S(=O)(=O)c2ccccc2)C[C@@]2(C)C3CC=C4C(CC(O)C(=O)C4(C)C)[C@]3(C)C(=O)C[C@]12C` (stereo partly drawn) [Compound 10a, 4-(2-((4-(((9R,13R,14S,16R)-17-((R,E)-6-Acetoxy-2-hydroxy-6-methyl-3-oxohept-4-en-2-yl)-2-hydroxy-4,4,9,13,14-pentamethyl-3,11-dioxo-2,3,4,7,8,9,10,11,12,13,14,15,16,17-tetradecahydro-1H-cyclopenta[a]phenanthren-16-yl)oxy)-4-oxobutanoyl)oxy)ethoxy)-3-(phenylsulfonyl)-1,2,5-oxadiazole 2-oxide], the “TI (Therapeutic Index)” value was 2.49.
In the case of `CC(=O)OC(C)(C)/C=C/C(=O)[C@](C)(O)C1[C@H](OC(=O)CCC(=O)OCCCOc2no[n+]([O-])c2S(=O)(=O)c2ccccc2)C[C@@]2(C)C3CC=C4C(CC(O)C(=O)C4(C)C)[C@]3(C)C(=O)C[C@]12C` (stereo partly drawn) [Compound 10b, 4-(3-((4-(((9R,13R,14S,16R)-17-((R,E)-6-Acetoxy-2-hydroxy-6-methyl-3-oxohept-4-en-2-yl)-2-hydroxy-4,4,9,13,14-pentamethyl-3,11-dioxo-2,3,4,7,8,9,10,11,12,13,14,15,16,17-tetradecahydro-1H-cyclopenta[a]phenanthren-16-yl)oxy)-4-oxobutanoyl)oxy)propoxy)-3-(phenylsulfonyl)-1,2,5-oxadiazole 2-oxide], the “TI (Therapeutic Index)” value is reported as 4.71.
`CC(=O)OC(C)(C)/C=C/C(=O)[C@](C)(O)C1[C@H](OC(=O)CCC(=O)OCCCCOc2no[n+]([O-])c2S(=O)(=O)c2ccccc2)C[C@@]2(C)C3CC=C4C(CC(O)C(=O)C4(C)C)[C@]3(C)C(=O)C[C@]12C` (stereo partly drawn) [Compound 10c, 4-(4-((4-(((9R,13R,14S,16R)-17-((R,E)-6-Acetoxy-2-hydroxy-6-methyl-3-oxohept-4-en-2-yl)-2-hydroxy-4,4,9,13,14-pentamethyl-3,11-dioxo-2,3,4,7,8,9,10,11,12,13,14,15,16,17-tetradecahydro-1H-cyclopenta[a]phenanthren-16-yl)oxy)-4-oxobutanoyl)oxy)butoxy)-3-(phenylsulfonyl)-1,2,5-oxadiazole 2-oxide] was tested, and the “TI (Therapeutic Index)” value was 4.03.
With `CC(=O)OC(C)(C)/C=C/C(=O)[C@](C)(O)C1[C@H](OC(=O)CCC(=O)OCCCCCOc2no[n+]([O-])c2S(=O)(=O)c2ccccc2)C[C@@]2(C)C3CC=C4C(CC(O)C(=O)C4(C)C)[C@]3(C)C(=O)C[C@]12C` (stereo partly drawn) [Compound 10d, 4-((5-((4-(((9R,13R,14S,16R)-17-((R,E)-6-Acetoxy-2-hydroxy-6-methyl-3-oxohept-4-en-2-yl)-2-hydroxy-4,4,9,13,14-pentamethyl-3,11-dioxo-2,3,4,7,8,9,10,11,12,13,14,15,16,17-tetradecahydro-1H-cyclopenta[a]phenanthren-16-yl)oxy)-4-oxobutanoyl)oxy)pentyl)oxy)-3-(phenylsulfonyl)-1,2,5-oxadiazole 2-oxide] the “TI (Therapeutic Index)” value was 4.1.
With `CC(=O)OC(C)(C)/C=C/C(=O)[C@](C)(O)C1[C@H](OC(=O)CCC(=O)OCCCCCCOc2no[n+]([O-])c2S(=O)(=O)c2ccccc2)C[C@@]2(C)C3CC=C4C(CC(O)C(=O)C4(C)C)[C@]3(C)C(=O)C[C@]12C` (stereo partly drawn) [Compound 10e, 4-((6-((4-(((9R,13R,14S,16R)-17-((R,E)-6-Acetoxy-2-hydroxy-6-methyl-3-oxohept-4-en-2-yl)-2-hydroxy-4,4,9,13,14-pentamethyl-3,11-dioxo-2,3,4,7,8,9,10,11,12,13,14,15,16,17-tetradecahydro-1H-cyclopenta[a]phenanthren-16-yl)oxy)-4-oxobutanoyl)oxy)hexyl)oxy)-3-(phenylsulfonyl)-1,2,5-oxadiazole 2-oxide] the “TI (Therapeutic Index)” value was 2.79.
`CC(=O)OC(C)(C)/C=C/C(=O)[C@](C)(O)C1[C@H](OC(=O)CCC(=O)OCCCCCCCOc2no[n+]([O-])c2S(=O)(=O)c2ccccc2)C[C@@]2(C)C3CC=C4C(CC(O)C(=O)C4(C)C)[C@]3(C)C(=O)C[C@]12C` (stereo partly drawn) [Compound 10f, 4-((7-((4-(((9R,13R,14S,16R)-17-((R,E)-6-Acetoxy-2-hydroxy-6-methyl-3-oxohept-4-en-2-yl)-2-hydroxy-4,4,9,13,14-pentamethyl-3,11-dioxo-2,3,4,7,8,9,10,11,12,13,14,15,16,17-tetradecahydro-1H-cyclopenta[a]phenanthren-16-yl)oxy)-4-oxobutanoyl)oxy)heptyl)oxy)-3-(phenylsulfonyl)-1,2,5-oxadiazole 2-oxide] was tested, and the “TI (Therapeutic Index)” value was 3.92.
With `CC(=O)OC(C)(C)/C=C/C(=O)[C@](C)(O)C1[C@H](OC(=O)CCC(=O)OCCCCCCCCOc2no[n+]([O-])c2S(=O)(=O)c2ccccc2)C[C@@]2(C)C3CC=C4C(CC(O)C(=O)C4(C)C)[C@]3(C)C(=O)C[C@]12C` (stereo partly drawn) [Compound 10g, 4-((8-((4-(((9R,13R,14S,16R)-17-((R,E)-6-Acetoxy-2-hydroxy-6-methyl-3-oxohept-4-en-2-yl)-2-hydroxy-4,4,9,13,14-pentamethyl-3,11-dioxo-2,3,4,7,8,9,10,11,12,13,14,15,16,17-tetradecahydro-1H-cyclopenta[a]phenanthren-16-yl)oxy)-4-oxobutanoyl)oxy)octyl)oxy)-3-(phenylsulfonyl)-1,2,5-oxadiazole 2-oxide] the “TI (Therapeutic Index)” value was 3.61.
In the case of `CC(=O)OC(C)(C)/C=C/C(=O)[C@](C)(O)C1[C@H](OC(=O)CCC(=O)OCCCCCCCCCOc2no[n+]([O-])c2S(=O)(=O)c2ccccc2)C[C@@]2(C)C3CC=C4C(CC(O)C(=O)C4(C)C)[C@]3(C)C(=O)C[C@]12C` (stereo partly drawn) [Compound 10h, 4-((9-((4-(((9R,13R,14S,16R)-17-((R,E)-6-Acetoxy-2-hydroxy-6-methyl-3-oxohept-4-en-2-yl)-2-hydroxy-4,4,9,13,14-pentamethyl-3,11-dioxo-2,3,4,7,8,9,10,11,12,13,14,15,16,17-tetradecahydro-1H-cyclopenta[a]phenanthren-16-yl)oxy)-4-oxobutanoyl)oxy)nonyl)oxy)-3-(phenylsulfonyl)-1,2,5-oxadiazole 2-oxide], the “TI (Therapeutic Index)” value is reported as 1.02.
With `CC(=O)OC(C)(C)/C=C/C(=O)[C@](C)(O)C1[C@H](OC(=O)CCC(=O)OCCCCCCCCCCOc2no[n+]([O-])c2S(=O)(=O)c2ccccc2)C[C@@]2(C)C3CC=C4C(CC(O)C(=O)C4(C)C)[C@]3(C)C(=O)C[C@]12C` (stereo partly drawn) [Compound 10i, 4-((10-((4-(((9R,13R,14S,16R)-17-((R,E)-6-Acetoxy-2-hydroxy-6-methyl-3-oxohept-4-en-2-yl)-2-hydroxy-4,4,9,13,14-pentamethyl-3,11-dioxo-2,3,4,7,8,9,10,11,12,13,14,15,16,17-tetradecahydro-1H-cyclopenta[a]phenanthren-16-yl)oxy)-4-oxobutanoyl)oxy)decyl)oxy)-3-(phenylsulfonyl)-1,2,5-oxadiazole 2-oxide] the “TI (Therapeutic Index)” value was 0.47.
`CC(=O)OC(C)(C)/C=C/C(=O)[C@](C)(O)C1[C@H](OC(=O)CCC(=O)OCCCCCCCCCCCOc2no[n+]([O-])c2S(=O)(=O)c2ccccc2)C[C@@]2(C)C3CC=C4C(CC(O)C(=O)C4(C)C)[C@]3(C)C(=O)C[C@]12C` (stereo partly drawn) [Compound 10j, 4-((11-((4-(((9R,13R,14S,16R)-17-((R,E)-6-Acetoxy-2-hydroxy-6-methyl-3-oxohept-4-en-2-yl)-2-hydroxy-4,4,9,13,14-pentamethyl-3,11-dioxo-2,3,4,7,8,9,10,11,12,13,14,15,16,17-tetradecahydro-1H-cyclopenta[a]phenanthren-16-yl)oxy)-4-oxobutanoyl)oxy)undecyl)oxy)-3-(phenylsulfonyl)-1,2,5-oxadiazole 2-oxide] was tested, and the “TI (Therapeutic Index)” value was 0.65.
